The nature of the experiment: qHTS Assay for Lipid Storage Modulators in Drosophila S3 Cells.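 For cell number change: cells counted by Cell Tracker Red CMTPX staining in the red channel.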 Particulars: BODIPY lipid droplet fluorescence, 18-24 h; for cell number change: measured here: cell count max response, cells fed with added oleic acid. A digest of the protocol: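 Laser-scanning cytometry quantifies lipid droplet accumulation (500–530 nm total intensity; droplet/cell object ratio) in oleic acid-fed (400 uM added) Drosophila S3 cells treated with a concentration series. 20 uM Triacsin C defined 100% inhibition.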
(Quantitative high-throughput screening tests each substance at several concentrations.)

Setting [1] is: measured here: cell number channel AC50, cells fed with added oleic acid.
Where [2] appears, read: measured here: lipid fluorescence (Fed channel) AC50, cells fed with added oleic acid.

The structures appear in SMILES notation. This is one part of the list. The main result of the screen is listed elsewhere. These columns were measured beside it and carry no call. Most of these compounds were active or inconclusive in the main read-out, so they are no random draw. Potencies come from curve fits of mixed quality, noted in brackets.

By AC50 is commonly meant the midpoint of the concentration-response curve, whichever way the signal moves. As to `Cc1nn(C)c(C)c1NC(=O)CCCSc1nc(-c2ccco2)cc(C(F)(F)F)n1`, the cell number change is -39.1%. Moreover, the AC50 under setting [1] was 14.6 µM [falling, single point]. The AC50 under setting [2] was 18.4 µM [falling, single point].

Take `O=C(OC(C(=O)Nc1ccc(Cl)c(C(F)(F)F)c1)c1ccccc1)C1=COCCO1` (stereo not drawn): the cell number change amounted to 19.3%.

As for `c1cc2c(cc1-n1cnnn1)OCO2`, the cell number change came out at 30.3%. Moreover, the AC50 under setting [1] is 29.1 µM [rising, single point].

For the molecule `COc1ccccc1/C=C/C=N/n1c(-c2ccncc2)n[nH]c1=S`, the cell number change was found to be 7.82%. Further, the AC50 under setting [2] was 0.082 µM [rising, full curve, poor fit].

`O=C(Nn1c(O)c(C=C2N=c3ccccc3=N2)sc1=S)c1ccccc1Cl`: the cell number change is 2.79%. For the same molecule, the AC50 under setting [2] is 0.58 µM [falling, partial curve, poor fit].

Consider `COc1cc(C)ccc1OCc1cc(C(=O)NCCN2CCCC(O)C2)no1` (stereo not drawn), for which the cell number change is -12.9%. For the same molecule, under setting [1], the AC50 was 0.146 µM [rising, full curve, poor fit]. Moreover, the AC50 under setting [2] is 29.1 µM [rising, single point].

As for `CC(C)CCNC(=O)C(C)N(C(=O)Cn1nnc(-c2ccc(F)cc2)n1)C1CCCC1` (stereo not drawn), the cell number change came to 13.4%. For the same molecule, the AC50 under setting [1] was 1.46 µM [rising, full curve, poor fit].

Consider `COc1ccc(N2C(=O)C(Cl)=C(NCc3ccccc3)C2=O)cc1`, for which the cell number change was determined as 75.6%. The AC50 under setting [1] was 16.4 µM [rising, partial curve]. The AC50 under setting [2] was 3.66 µM [rising, single point].

Turning to `CCNc1nc2c(c(=O)[nH]c(=O)n2C)n1Cc1ccc(F)cc1`, the cell number change is 39.5%. The AC50 under setting [1] is 11.6 µM [rising, partial curve, poor fit].

Turning to `COCCn1c(C)cc(C(=O)COC(=O)C23CC4CC(CC(O)(C4)C2)C3)c1C`, the cell number change was found to be 22.8%. The AC50 under setting [2] is 18.4 µM [rising, single point].

Consider `S=C(NCCCN1CCOCC1)Nc1cccc(Cl)c1`, for which the cell number change was -56%. Under setting [1], the AC50 was 0.00517 µM [falling, full curve, poor fit]. Besides, the concentration at half-maximal activity (AC50) under setting [2] was 0.00517 µM [falling, full curve, poor fit].

As to `COc1ccc(/C=C/C(=O)C2C(=O)C=C(C)OC2=O)cc1O` (stereo not drawn), the cell number change was -20.6%. For the same molecule, the AC50 under setting [2] is 29.1 µM [falling, single point].

In the case of `Cc1ccc2ccc(C(Nc3ccccn3)c3ccccc3)c(O)c2n1` (stereo not drawn), the cell number change was -43.8%. Also, the AC50 under setting [1] is 20.6 µM [falling, single point]. Further, under setting [2], the AC50 was 1.3 µM [falling, partial curve].

On to `COc1ccccc1S(=O)(=O)Cc1ccc(C(=O)NCc2ccc3c(c2)OCO3)o1`, for which the cell number change was found to be 92.2%. Also, under setting [1], the AC50 was 0.651 µM [rising, full curve]. Further, the AC50 under setting [2] is 0.411 µM [rising, full curve].

These data come from PubChem BioAssay AID2685 (National Center for Advancing Translational Sciences (NCATS), 2010).
